Measured values from patent US20020146741A1, “Processes for receptpor screening” (priority 2000, published 2002).
At least one compound was matched to its structure with a doubt left.

Experiments:
GR [1] = target: T1, GR (Homo sapiens, UniProt P04150); assay: FP-based competitive ligand binding assay; set-up: GR was produced as a full length protein in insect cells and partially purified using ion exchange chromatography; made in house; host or cells: insect cells (baculovirus); details: relative binding affinity, dexamethasone = 100
T1 sequence (P04150 1-777): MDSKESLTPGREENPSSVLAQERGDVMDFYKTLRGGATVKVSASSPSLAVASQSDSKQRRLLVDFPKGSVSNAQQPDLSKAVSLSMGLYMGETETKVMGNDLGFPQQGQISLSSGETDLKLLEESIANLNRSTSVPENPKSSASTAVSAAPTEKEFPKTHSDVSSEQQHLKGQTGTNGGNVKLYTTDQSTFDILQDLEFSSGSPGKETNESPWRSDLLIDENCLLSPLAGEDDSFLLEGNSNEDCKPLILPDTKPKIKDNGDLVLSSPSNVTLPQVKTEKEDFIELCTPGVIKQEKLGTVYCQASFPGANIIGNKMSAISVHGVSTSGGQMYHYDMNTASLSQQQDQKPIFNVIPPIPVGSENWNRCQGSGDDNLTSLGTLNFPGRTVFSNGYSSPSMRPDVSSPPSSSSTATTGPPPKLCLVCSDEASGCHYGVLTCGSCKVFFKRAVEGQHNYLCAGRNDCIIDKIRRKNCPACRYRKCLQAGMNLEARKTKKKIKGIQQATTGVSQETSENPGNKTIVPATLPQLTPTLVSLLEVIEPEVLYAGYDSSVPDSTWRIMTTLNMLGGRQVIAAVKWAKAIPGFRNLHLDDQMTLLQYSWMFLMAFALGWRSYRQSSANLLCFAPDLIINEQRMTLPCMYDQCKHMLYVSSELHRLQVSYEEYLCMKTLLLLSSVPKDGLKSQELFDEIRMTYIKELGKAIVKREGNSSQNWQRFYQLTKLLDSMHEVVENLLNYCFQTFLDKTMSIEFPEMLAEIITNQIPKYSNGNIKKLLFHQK
Procedure: FIG. 3A and B are graphs showing FP-based competition assays with recombinant GR (A) and PR-LBD (B). Serial dilutions of test steroids were prepared. […] Final incubation conditions were similar to those described in FIG. 3. The final concentration of GR used was 4 nM, and for PR-LBD it was 8 nM. After a 1-hour incubation at room temperature, the fluorescence polarization of each well was read, using wells lacking fluor as blanks.
The other criteria used for validating a fluorescent steroid conjugate is the ability of known receptor ligands to compete with the fluor for binding to the receptor.

GR [2] = target: T1, GR; details: literature RBA, dexamethasone = 100; cited from earlier work

Row | Compound | RBA (GR [1]) | Literature Value (GR [2])
1 | CC1(C)O[C@@H]2C[C@H]3[C@@H]4CCC5=CC(=O)C=C[C@]5(C)[C@@]4(F)[C@@H](O)C[C@]3(C)[C@]2(C(=O)CO)O1 [Triamcinolone acetonide] | 82 | 100
2 | CCCC1O[C@@H]2C[C@H]3[C@@H]4CCC5=CC(=O)C=C[C@]5(C)[C@H]4[C@@H](O)C[C@]3(C)[C@]2(C(=O)CO)O1 (stereo partly drawn) [Budesonide] | – | 600
